Results from doi:10.1101/2020.02.05.923433 (bioRxiv, 2020).

Amino acid sequences for entries named in this document (tags omitted). Residues count along the entry.
UniProt O75628, residues 76-251: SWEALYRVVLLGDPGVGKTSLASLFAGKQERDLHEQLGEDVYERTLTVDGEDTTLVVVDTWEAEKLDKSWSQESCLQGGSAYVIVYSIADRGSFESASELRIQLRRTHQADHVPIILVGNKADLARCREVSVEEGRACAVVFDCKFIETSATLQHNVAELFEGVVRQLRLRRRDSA

What was measured:
[1] = target: GST-tagged, wild-type REM1 (residues 76-251) (human) (UniProt O75628); test: pull-down
[2] = target: T1, GST-tagged, wild-type GEM (residues 62-203) (human) (UniProt P55040); test: pull-down
T1 sequence: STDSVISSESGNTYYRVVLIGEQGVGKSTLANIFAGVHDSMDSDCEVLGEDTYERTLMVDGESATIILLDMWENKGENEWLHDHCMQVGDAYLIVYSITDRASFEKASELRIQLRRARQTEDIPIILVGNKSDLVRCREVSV

binding [1]: binds
binding [2]: binds
Substance: purified RASSF1 RA domain (from UniProt Q9NS23-2) (domain or fragment)

Results are given in words; binding and its absence hold for the method and conditions named. Binding calls can cover weak binding; strength is not graded here. For some assays here: Tags and fused reporters may be left off the sequences shown.
